Experimental data: patent EP3611183B1 (Seoul National University R & DB Foundation, priority 2017, dated 2023)

Assay: peptide synthesis
Details: whole synthesis, one disulfide bridge, sequence written open

In the case of CWPSALPTC, the outcome is reported as “peptide A which failed to synthesize in a cyclic form”.

End groups of sequences in plain letters are not given here.
